# Measurements published in paper PMC7819943, “Rice protein-binding microarrays: a tool to detect cis-acting elements near promoter regions in rice”.
# Some of the results follow.
# Molecular target: T1, OsSMF1 (Oryza sativa, UniProt Q6ZLB0 1-436)
# T1 sequence: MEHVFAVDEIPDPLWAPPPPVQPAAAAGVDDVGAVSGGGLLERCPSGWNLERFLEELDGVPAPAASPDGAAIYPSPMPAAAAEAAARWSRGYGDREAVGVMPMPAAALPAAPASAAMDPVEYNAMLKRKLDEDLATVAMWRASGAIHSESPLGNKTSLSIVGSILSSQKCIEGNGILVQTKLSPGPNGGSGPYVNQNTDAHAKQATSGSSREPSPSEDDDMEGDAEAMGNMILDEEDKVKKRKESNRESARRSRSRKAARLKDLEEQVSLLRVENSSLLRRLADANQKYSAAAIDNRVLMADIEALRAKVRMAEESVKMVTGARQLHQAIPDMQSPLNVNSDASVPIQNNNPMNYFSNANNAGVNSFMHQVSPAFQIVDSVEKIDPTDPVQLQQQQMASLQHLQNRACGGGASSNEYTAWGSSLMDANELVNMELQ
# Assay: protein-binding microarray (RPBM); PBS, 2% BSA, 51.3 ng/ul salmon testes DNA, 50 uM zinc acetate, 200 nM TF, 25 C, 1 h; high values mean tight binding
# Conditions: protein: recombinant; tags: N-terminal polyhistidine and DsRed monomer fusion (pET32a); chain copies: 2; label: CyDye5-dUTP incorporated in the synthesized complementary strand; 3' TTTTT single-stranded linker to array surface; dsDNA, one strand shown
# In short: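 Binding signal here means per-feature fluorescence intensity in arbitrary units. The values were read on an Axon 4000B scanner after a custom Agilent array, double-stranded by primer extension with Cy5-dUTP, was incubated with 200 nM protein at 25 °C for 1 h in PBS with 2% BSA, salmon testes DNA and 50 µM zinc acetate, then washed. The proteins were transcription factors with an N-terminal polyhistidine tag and DsRed, expressed in E. coli BL21-CodonPlus and purified on Ni–NTA.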
row,Sequence,binding signal
1,CATAAGCGCCACATCAACTCCACGTAGAACGAAAACCGAGCGGAGTCACCTAGTGCAG,9310 fluorescence intensity (a.u.)
2,GCCTAGTGATGATGCAGAGGGGATTCCCGCTTTAAGTATGCGGAGTCACCTAGTGCAG,7970 fluorescence intensity (a.u.)
3,TCATCTCGTTTTGTCACGTGCGTGCACATGACGCGATAGCCGGAGTCACCTAGTGCAG,7110 fluorescence intensity (a.u.)
4,GTTTCCGATCCACCCGTCCAATTAAATCATGCTTAGTGGCCGGAGTCACCTAGTGCAG,3320 fluorescence intensity (a.u.)
5,CCATCACTACAACATGTCATCATCCGATGTCTCCGGCAGTCGGAGTCACCTAGTGCAG,5740 fluorescence intensity (a.u.)
6,ACGGACAGTCAAACGTTAGACACGGAAACCAAGGTTTGTCCGGAGTCACCTAGTGCAG,30500 fluorescence intensity (a.u.)
7,AGGGGTTTGGTTGGTGAGCGACGGAGTCTGCGCGGTGGGACGGAGTCACCTAGTGCAG,21500 fluorescence intensity (a.u.)
8,ACCTTTTCTTCAATCATACTTCACATAATGACCCGCAGCACGGAGTCACCTAGTGCAG,3650 fluorescence intensity (a.u.)
9,CCCGTCTCGCCCGCAGTCACGGATCGAGGAGGCCTCGGCTCGGAGTCACCTAGTGCAG,3760 fluorescence intensity (a.u.)
10,AGAGAAGAGGAGAAAGAGGGAAGGTGATGATGTGGCTTCCCGGAGTCACCTAGTGCAG,14100 fluorescence intensity (a.u.)
11,AATCCACTGTTGTGTTTGTTTGGTGGCATGCATATGTAGACGGAGTCACCTAGTGCAG,3160 fluorescence intensity (a.u.)
12,ATCTGTTATGTTTGCCCTGTCATTGGTTCTGCTAATCAATCGGAGTCACCTAGTGCAG,3190 fluorescence intensity (a.u.)
13,CAACAATCGTGTGCTGTGCTGACGACAGCCATGGGCCACACGGAGTCACCTAGTGCAG,7140 fluorescence intensity (a.u.)
14,ATGAATAATTCTTGATGACAACTATTATTGTTGTGGATTTCGGAGTCACCTAGTGCAG,3880 fluorescence intensity (a.u.)
15,GTCTAAAGCTGCGTTTGACCGTGATTTTGCCTACGTGGCACGGAGTCACCTAGTGCAG,20800 fluorescence intensity (a.u.)
16,CGCTTTAAGTGGGAATTAAACAATTGGGCACCAACCAAGACGGAGTCACCTAGTGCAG,23400 fluorescence intensity (a.u.)
17,ACTGGTTCCATTCCTCCTCGTCATCTCCAGCTCGCGGCGGCGGAGTCACCTAGTGCAG,7580 fluorescence intensity (a.u.)
18,CCCATTGCTGTCTCTACCATGTGTCATCTTCCAATAAGCACGGAGTCACCTAGTGCAG,4950 fluorescence intensity (a.u.)
19,TCTGCTGTATGCGAGGATGACTTAGCGTGCTCACGTGGCACGGAGTCACCTAGTGCAG,18000 fluorescence intensity (a.u.)
20,CCGCGCCCTTGCAGGAAGATGTGTCAGCTGCAGATTTGGGCGGAGTCACCTAGTGCAG,6110 fluorescence intensity (a.u.)
21,GACTAAAACTATAACACCTTTTCAAATAAACACGTGTGCACGGAGTCACCTAGTGCAG,7990 fluorescence intensity (a.u.)

row,Sequence,binding signal
1,CCTCCTCGCTGCCCAGCCACCGCCGCCCTCCCGTCCCGCGCGGAGTCACCTAGTGCAG,3490 fluorescence intensity (a.u.)
2,TCGAGTAAGGTTCCTTGTCGCCGTTGATGACGGCAGCCTCCGGAGTCACCTAGTGCAG,3750 fluorescence intensity (a.u.)
3,CAGTATAATACTATAATCCTCCACGTTTGCGGCTCACGTGCGGAGTCACCTAGTGCAG,5490 fluorescence intensity (a.u.)
4,CACGGGTGCCCGCGTCATCCCGTCCCCTCGAGCGTCGCCCCGGAGTCACCTAGTGCAG,6980 fluorescence intensity (a.u.)
5,ATTTCCGTTTCTAAATTGACACATCGGCTACTCACTTATGCGGAGTCACCTAGTGCAG,6380 fluorescence intensity (a.u.)
6,TCTTCAGGAGTCAGGACTAGCAAATGGTAAAGCAGCAATTCGGAGTCACCTAGTGCAG,22900 fluorescence intensity (a.u.)
7,GCAAGCTACTAGCACACACTATCCACGTACTCCAGTACAGCGGAGTCACCTAGTGCAG,5550 fluorescence intensity (a.u.)
8,ACCTATCATCAATGTGTTGGCTTAATTCAGCATCACTAATCGGAGTCACCTAGTGCAG,3380 fluorescence intensity (a.u.)
9,GGAGGACCATTCGCTTCCACATCTGCGCCATCACAACCGCCGGAGTCACCTAGTGCAG,3940 fluorescence intensity (a.u.)
10,TACACCGACTCCAACACATCATCCTCCTCCACCAAACTTACGGAGTCACCTAGTGCAG,3450 fluorescence intensity (a.u.)
11,TTCTATAGAAGCTTTCTCTCTTAAAACTCTACCAAAATTTCGGAGTCACCTAGTGCAG,24000 fluorescence intensity (a.u.)
12,TTAATTCATTAAACTTGTCGACAGGTCAACTCACCGACCACGGAGTCACCTAGTGCAG,3950 fluorescence intensity (a.u.)
13,TGATTGCCTTGCCTTGCCTGCCTGCGTGTCATCAGTCGTCCGGAGTCACCTAGTGCAG,11800 fluorescence intensity (a.u.)
14,TGCCGAAGTTGTTGGTGACGAAGTCGAGGCTGCCGAACCGCGGAGTCACCTAGTGCAG,4750 fluorescence intensity (a.u.)
15,GGATTTCCTGGGCGGGCGGGGCGCGGATAAGGGGTGTGTGCGGAGTCACCTAGTGCAG,3690 fluorescence intensity (a.u.)
16,CTTGTGGGTCCCCAATTCACGAGTCATTGCTGTCACGCTCCGGAGTCACCTAGTGCAG,4620 fluorescence intensity (a.u.)
17,GCTGCTGCACCGTCTCTCTTCATAAATATACTAGTAGGAGCGGAGTCACCTAGTGCAG,3180 fluorescence intensity (a.u.)
18,TAATATATCAAGCATAAATTTATGTTATCATTTTCTTTCGCGGAGTCACCTAGTGCAG,3980 fluorescence intensity (a.u.)
19,GACATTGATAATAACACCGTCGTCAGCGCTACCCAAATTCCGGAGTCACCTAGTGCAG,4070 fluorescence intensity (a.u.)
20,CTGGTACATATGCTTAATTATGTGGCAATTGCAGAGATTGCGGAGTCACCTAGTGCAG,4570 fluorescence intensity (a.u.)
21,AGGTATATCTTGTAGAGCGTGTCATTGTCCAAAGCGTCAACGGAGTCACCTAGTGCAG,4060 fluorescence intensity (a.u.)

# A few values from the list:
# CCCATTGCTGTCTCTACCATGTGTCATCTTCCAATAAGCACGGAGTCACCTAGTGCAG | binding signal: 4950 fluorescence intensity (a.u.)
# TTCTATAGAAGCTTTCTCTCTTAAAACTCTACCAAAATTTCGGAGTCACCTAGTGCAG | binding signal: 24000 fluorescence intensity (a.u.)
# ATTTCCGTTTCTAAATTGACACATCGGCTACTCACTTATGCGGAGTCACCTAGTGCAG | binding signal: 6380 fluorescence intensity (a.u.)
